The supplement of paper PMC7661543
The effect of the compound repeats well; differences between the knockouts mostly do not.

What was measured:
[1] = system: HCC-38; assay: relative cell number vs DMSO control (72 h) (% of DMSO); higher = less growth inhibition (more cells)
Description: (§1)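 QMAP-Seq: a pool of 5 breast cancer cell lines (ZR-75-1, SKBR3, HCC-38, MDA-MB-231, BT-20), each carrying 12 doxycycline-inducible Cas9 sgRNA perturbations (11 knockouts plus non-targeting sgNT), was treated with compounds for 72 h at four 10-fold doses (10 nM-10 uM or 1 nM-1 uM range). Barcodes were amplified and sequenced, and cell number was interpolated from 293T spike-in standard curves. The result is expressed as % of the median of DMSO wells. Two biological replicates.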

[2] = system: MDA-MB-231; assay: as above
Description: as §1

CN(C)C/C=C/C(=O)Nc1cc2c(Nc3ccc(F)c(Cl)c3)ncnc2cc1O[C@H]1CCOC1 [Afatinib]
relative cell number
Settings	[1]	[2]
sgRNA knockout: sgATF3, 10 nM	95.7	112
sgRNA knockout: sgATF3, 100 nM	103	93.1
sgRNA knockout: sgATF3, 1000 nM	85	94.5
sgRNA knockout: sgATF3, 10000 nM	22.13	11.1
sgRNA knockout: sgATF4, 10 nM	93.1	114
sgRNA knockout: sgATF4, 100 nM	114	109
sgRNA knockout: sgATF4, 1000 nM	75.3	80.14
sgRNA knockout: sgATF4, 10000 nM	20	14.6
sgRNA knockout: sgATF6, 10 nM	112	106.7
sgRNA knockout: sgATF6, 100 nM	89.5	80.09
sgRNA knockout: sgATF6, 1000 nM	84.2	78.4
sgRNA knockout: sgATF6, 10000 nM	27.7	9.87
sgRNA knockout: sgATG7, 10 nM	93.9	107
sgRNA knockout: sgATG7, 100 nM	96.5	76.1
sgRNA knockout: sgATG7, 1000 nM	73.9	67.4
sgRNA knockout: sgATG7, 10000 nM	21.6	10.7
sgRNA knockout: sgERN1, 10 nM	96.1	112
sgRNA knockout: sgERN1, 100 nM	97.8	74.5
sgRNA knockout: sgERN1, 1000 nM	74.2	77.7
sgRNA knockout: sgERN1, 10000 nM	20.6	11.9
sgRNA knockout: sgHSF1, 10 nM	105	102
sgRNA knockout: sgHSF1, 100 nM	81.2	75.9
sgRNA knockout: sgHSF1, 1000 nM	92.9	66.5
sgRNA knockout: sgHSF1, 10000 nM	22.6	7.97
sgRNA knockout: sgHSF2, 10 nM	108	108
sgRNA knockout: sgHSF2, 100 nM	102	107
sgRNA knockout: sgHSF2, 1000 nM	84.4	73.2
sgRNA knockout: sgHSF2, 10000 nM	21.4	11.3
sgRNA knockout: sgKEAP1, 10 nM	121	128
sgRNA knockout: sgKEAP1, 100 nM	101	77.2
sgRNA knockout: sgKEAP1, 1000 nM	81.7	59.2
sgRNA knockout: sgKEAP1, 10000 nM	21.5	11.1
sgRNA knockout: sgNFE2L2, 10 nM	84.9	94.3
sgRNA knockout: sgNFE2L2, 100 nM	103	78.6
sgRNA knockout: sgNFE2L2, 1000 nM	66.3	72.1
sgRNA knockout: sgNFE2L2, 10000 nM	20.6	6.98
sgRNA knockout: sgSLC35F2, 10 nM	88.5	94.8
sgRNA knockout: sgSLC35F2, 100 nM	102.2	68.6
sgRNA knockout: sgSLC35F2, 1000 nM	75.1	67.7
sgRNA knockout: sgSLC35F2, 10000 nM	19.49	12.1
sgRNA knockout: sgXBP1, 10 nM	91.8	93.2
sgRNA knockout: sgXBP1, 100 nM	104	78.8
sgRNA knockout: sgXBP1, 1000 nM	77.3	80.9
sgRNA knockout: sgXBP1, 10000 nM	22.42	13.3

COc1cc(Nc2ncc3c(n2)-c2ccc(Cl)cc2C(c2c(F)cccc2OC)=NC3)ccc1C(=O)O [Alisertib]
relative cell number
Settings	[1]	[2]
sgRNA knockout: sgATF3, 10 nM	102	98.7
sgRNA knockout: sgATF3, 100 nM	62.33	70.4
sgRNA knockout: sgATF3, 1000 nM	50	69.4
sgRNA knockout: sgATF3, 10000 nM	47.5	44.8
sgRNA knockout: sgATF4, 10 nM	100	94.1
sgRNA knockout: sgATF4, 100 nM	71.4	82.4
sgRNA knockout: sgATF4, 1000 nM	53.9	72.3
sgRNA knockout: sgATF4, 10000 nM	43	42.7
sgRNA knockout: sgATF6, 10 nM	102	71.5
sgRNA knockout: sgATF6, 100 nM	49.3	55.5
sgRNA knockout: sgATF6, 1000 nM	64.4	65.7
sgRNA knockout: sgATF6, 10000 nM	55.3	42.201
sgRNA knockout: sgATG7, 10 nM	110	93.904
sgRNA knockout: sgATG7, 100 nM	60.5	77.4
sgRNA knockout: sgATG7, 1000 nM	54.4	51.7
sgRNA knockout: sgATG7, 10000 nM	48.1	45.8
sgRNA knockout: sgERN1, 10 nM	91.8	109
sgRNA knockout: sgERN1, 100 nM	62.5	57.3
sgRNA knockout: sgERN1, 1000 nM	60.4	62.8
sgRNA knockout: sgERN1, 10000 nM	50.8	44.4
sgRNA knockout: sgHSF1, 10 nM	111	116
sgRNA knockout: sgHSF1, 100 nM	57.8	68.8
sgRNA knockout: sgHSF1, 1000 nM	50.3	66.5
sgRNA knockout: sgHSF1, 10000 nM	51.6	41.9
sgRNA knockout: sgHSF2, 10 nM	106	81.8
sgRNA knockout: sgHSF2, 100 nM	61.8	82.5
sgRNA knockout: sgHSF2, 1000 nM	61.3	76.3
sgRNA knockout: sgHSF2, 10000 nM	48.5	46
sgRNA knockout: sgKEAP1, 10 nM	111	87
sgRNA knockout: sgKEAP1, 100 nM	44.4	70.6
sgRNA knockout: sgKEAP1, 1000 nM	66.1	58.7
sgRNA knockout: sgKEAP1, 10000 nM	58.8	46
sgRNA knockout: sgNFE2L2, 10 nM	95.4	101
sgRNA knockout: sgNFE2L2, 100 nM	64.22	56.9
sgRNA knockout: sgNFE2L2, 1000 nM	51	61.4
sgRNA knockout: sgNFE2L2, 10000 nM	42.7	43.9
sgRNA knockout: sgSLC35F2, 10 nM	97.9	88.8
sgRNA knockout: sgSLC35F2, 100 nM	57.3	63.7
sgRNA knockout: sgSLC35F2, 1000 nM	60.9	81.1
sgRNA knockout: sgSLC35F2, 10000 nM	48.6	43.3
sgRNA knockout: sgXBP1, 10 nM	96.4	91.75
sgRNA knockout: sgXBP1, 100 nM	63.9	81.6
sgRNA knockout: sgXBP1, 1000 nM	54.4	62.2
sgRNA knockout: sgXBP1, 10000 nM	47.8	38.4

CCN1CCN(c2ccc(Nc3cc(N(C)C(=O)Nc4c(Cl)c(OC)cc(OC)c4Cl)ncn3)cc2)CC1 [BGJ398]
relative cell number
Settings	[1]	[2]
sgRNA knockout: sgATF3, 10 nM	97.7	120
sgRNA knockout: sgATF3, 100 nM	70.8	95.6
sgRNA knockout: sgATF3, 1000 nM	58.7	106
sgRNA knockout: sgATF3, 10000 nM	61.5	74.5
sgRNA knockout: sgATF4, 10 nM	90.1	95.2
sgRNA knockout: sgATF4, 100 nM	69.4	113
sgRNA knockout: sgATF4, 1000 nM	54.6	81.1
sgRNA knockout: sgATF4, 10000 nM	67.2	80.9
sgRNA knockout: sgATF6, 10 nM	94	96.8
sgRNA knockout: sgATF6, 100 nM	73.7	73.6
sgRNA knockout: sgATF6, 1000 nM	61.1	66.7
sgRNA knockout: sgATF6, 10000 nM	62.2	65
sgRNA knockout: sgATG7, 10 nM	99.8	96.2
sgRNA knockout: sgATG7, 100 nM	67.2	102
sgRNA knockout: sgATG7, 1000 nM	54.6	82.8
sgRNA knockout: sgATG7, 10000 nM	60.1	88.5
sgRNA knockout: sgERN1, 10 nM	92.1	101
sgRNA knockout: sgERN1, 100 nM	71.2	103
sgRNA knockout: sgERN1, 1000 nM	55.8	66.1
sgRNA knockout: sgERN1, 10000 nM	64.5	87.9
sgRNA knockout: sgHSF1, 10 nM	91.1	94.6
sgRNA knockout: sgHSF1, 100 nM	85.9	89.8
sgRNA knockout: sgHSF1, 1000 nM	68.2	79
sgRNA knockout: sgHSF1, 10000 nM	69.1	74.9
sgRNA knockout: sgHSF2, 10 nM	96.8	110
sgRNA knockout: sgHSF2, 100 nM	85.4	101
sgRNA knockout: sgHSF2, 1000 nM	59	90.1
sgRNA knockout: sgHSF2, 10000 nM	62.16	78.4
sgRNA knockout: sgKEAP1, 10 nM	122	111
sgRNA knockout: sgKEAP1, 100 nM	84.7	93.2
sgRNA knockout: sgKEAP1, 1000 nM	66.2	84.6
sgRNA knockout: sgKEAP1, 10000 nM	45.3	91.5
sgRNA knockout: sgNFE2L2, 10 nM	92.4	88.8
sgRNA knockout: sgNFE2L2, 100 nM	65.1	98.1
sgRNA knockout: sgNFE2L2, 1000 nM	52.9	80.12
sgRNA knockout: sgNFE2L2, 10000 nM	60.3	77.4
sgRNA knockout: sgSLC35F2, 10 nM	99.3	91.6
sgRNA knockout: sgSLC35F2, 100 nM	68	102
sgRNA knockout: sgSLC35F2, 1000 nM	54	97.4
sgRNA knockout: sgSLC35F2, 10000 nM	64.69	52.5
sgRNA knockout: sgXBP1, 10 nM	87.4	69.8
sgRNA knockout: sgXBP1, 100 nM	69.1	90.3
sgRNA knockout: sgXBP1, 1000 nM	56.1	80.8
sgRNA knockout: sgXBP1, 10000 nM	56.6	73.5
